This is an account of results in patent publication US20060211627A1 (BURNHAM INSTITUTE, published 2006).

Amino acid sequences for entries named in this document (tags omitted). Residues count along the entry.
UniProt P98170, residues 124-240: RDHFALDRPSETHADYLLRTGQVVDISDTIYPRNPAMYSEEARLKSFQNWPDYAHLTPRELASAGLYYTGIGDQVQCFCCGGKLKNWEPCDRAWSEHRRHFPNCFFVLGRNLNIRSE

The assay deals with GST-BIR2 (human) (UniProt P98170). Description: biotinylated peptide on Neutravidin plate, GST-XIAP BIR2 added, anti-GST detection.

Results are given in words; binding and its absence hold for the method and conditions named. Some entries that bind do so weakly or less than the wild type.

Consider AVPIAQK (biotin (site not stated)) [biotinylated SMAC 7-mer peptide], for which the binding result is “binds”.
